# Assay results

From PubChem BioAssay record AID1159506 (NCATS, 2015).

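Genome-wide siRNA knockdown in TC32 Ewing sarcoma cells, comparing luciferase light from an NR0B1-promoter reporter with a CMV-promoter reporter 48 hours after transfection.
Each siRNA was applied at 20 nM.
A z-score of the log NR0B1-over-CMV signal, less the median of siRNAs with the same seed; more negative means a stronger specific loss of the NR0B1 reporter.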

The strongest results of the screen are mostly left out here.
Sequences are the guide (antisense) strand, without overhang.

- UUCUCAAUCAGUUCUUUCA against NDUFV1 | seed-corrected z-score -0.6371
- AAACGGAACUUAUCGAUCC against EPHX1 | seed-corrected z-score 0.5017
- UUAUGGGAAAUAAGAGGGU against FRYL | seed-corrected z-score -0.7067
- UUCCGUUUUAGGGACUGAC against LRRC8B | seed-corrected z-score 0.3062
- UUCUCUAGGAUGUAGCACC against SULF2 | seed-corrected z-score 1.7
- UAACUAAGUACCACGUUCC against HMGCS1 | seed-corrected z-score -0.9725
- UCGAGGUCACGUUCGAAGC against DNAJC27-AS1 | seed-corrected z-score -1.197
- UACCGGUCCAUGCUAAUGC against CCR6 | seed-corrected z-score -0.6597
- UUACUAUAAGCAGGCUUGG against GLRA2 | seed-corrected z-score 0.7119
- AAUGCUAGUAAUCCAGUUG against ADD3 | seed-corrected z-score -0.5023
- ACUGGGACAAAAGCUGUAC against MRPS18C | seed-corrected z-score -0.5345
- UGCAUUGACCUUUUGAAGC against TCTN3 | seed-corrected z-score 0.08259
- UCUCUGUAGACAGGAGUCC against IQCE | seed-corrected z-score 0.2823
- AAAGGUGAUGGAACGAUGG against OR10H3 | seed-corrected z-score 1.306
- UGUAUCUGAAGUUGGAUCC against NUP155 | seed-corrected z-score -0.6914
- UCCCUAAAAAUGGAUCUGU against PKIG | seed-corrected z-score 0.2473
- AAAAUGUAACAAAUCAUGC against HAND2-AS1 | seed-corrected z-score 0.467
- CCACUUGUAGGUCCUAUGC against STAG3L3 | seed-corrected z-score 1.217
- UUCUAUAUCAGUGUUGGAG against CD101 | seed-corrected z-score 0.02714
- UGCACUAUUUAUAUACUCC against LINC00602 | seed-corrected z-score 0.3851
- AGUUUAAUCGGACUGGUCG against MTUS2 | seed-corrected z-score 0.8498
- UAAGUCACCGCGUCACGGA against HIST4H4 | seed-corrected z-score -0.03934
- UACUCAUCGGUGGUGAGGC against BLVRB | seed-corrected z-score 0.02987
- AUAUCCUUCGUAGAUAUCC against ACSM3 | seed-corrected z-score -0.2605
- AAAGAUGUAAGGUAAGUCC against HOXB3 | seed-corrected z-score 0.811
- UGAACCUUAAAGGCAAUGC against TBC1D29 | seed-corrected z-score 0.3106
- UCUCGUAGAAGUGGUAGUG against PLCD4 | seed-corrected z-score 0.3956
- UUCUUCACAGAGAUGCUUG against CARD18 | seed-corrected z-score 0.6532
- UACGUUGAUAGAGUACCUC against LRP1B | seed-corrected z-score -0.3893
- UUAACUGUCCAAUCCAUGC against FBXO47 | seed-corrected z-score -0.1558
- UUCUUGAUAUAAGUAAUCA against RIPPLY2 | seed-corrected z-score -0.743
- UCGGAUACAGAAUCACUGC against VPS54 | seed-corrected z-score -0.2213
- UCCAAGUUGACAUAGUUCC against DNAJC14 | seed-corrected z-score 0.07008
- UUUUGAGCUCAGAAGGACG against ZNF711 | seed-corrected z-score 0.07043
- AAUACUUUCACUUUAGAUC against GKAP1 | seed-corrected z-score -0.3684
- UAUCCGACCGGAUCUGUAC against CENPJ | seed-corrected z-score -0.9249
- UUCAGUAGAAUUGAGAAUC against KRTAP19-4 | seed-corrected z-score 0.1402
- UUAGUUACAAAGAGAAACA against LOC284577 | seed-corrected z-score 0.3512
- AUCCAAUGAAGCUUUGACC against TMEM247 | seed-corrected z-score 0.9393
- UGAAGUUCAGCAACCCUGC against OR5F1 | seed-corrected z-score 0.2114
- UAAUAUCUGGGAAGGAUGG against HDDC3 | seed-corrected z-score -0.0307
- UGCAUUACCUGGAUCGUUG against VSIG1 | seed-corrected z-score -0.2385
- AACUGUACAUCUCUGAGUG against RRM2B | seed-corrected z-score -0.2307
- AAAGUAACAAGUGCUAUUG against CBX3P2 | seed-corrected z-score 1.297
- UGAUGUUAAUCCUUCAGGC against TECPR2 | seed-corrected z-score 0.3732
- UCUGUCUCUGCGAUGGUCU against SLC31A2 | seed-corrected z-score 0.8004

Once more, the final 4:

siRNA	gene	seed-corrected z-score
AACUGUACAUCUCUGAGUG	RRM2B	-0.2307
AAAGUAACAAGUGCUAUUG	CBX3P2	1.297
UGAUGUUAAUCCUUCAGGC	TECPR2	0.3732
UCUGUCUCUGCGAUGGUCU	SLC31A2	0.8004